# Source: paper PMC7024268
# These are yes or no findings as the source states them, for the method shown. In cells and extracts the contact can be indirect. Some binding calls cover weakened binding; strength is not graded here.
# T1: PP5 (human (endogenous in HEK293)) (UniProt P53041)
# T1 sequence: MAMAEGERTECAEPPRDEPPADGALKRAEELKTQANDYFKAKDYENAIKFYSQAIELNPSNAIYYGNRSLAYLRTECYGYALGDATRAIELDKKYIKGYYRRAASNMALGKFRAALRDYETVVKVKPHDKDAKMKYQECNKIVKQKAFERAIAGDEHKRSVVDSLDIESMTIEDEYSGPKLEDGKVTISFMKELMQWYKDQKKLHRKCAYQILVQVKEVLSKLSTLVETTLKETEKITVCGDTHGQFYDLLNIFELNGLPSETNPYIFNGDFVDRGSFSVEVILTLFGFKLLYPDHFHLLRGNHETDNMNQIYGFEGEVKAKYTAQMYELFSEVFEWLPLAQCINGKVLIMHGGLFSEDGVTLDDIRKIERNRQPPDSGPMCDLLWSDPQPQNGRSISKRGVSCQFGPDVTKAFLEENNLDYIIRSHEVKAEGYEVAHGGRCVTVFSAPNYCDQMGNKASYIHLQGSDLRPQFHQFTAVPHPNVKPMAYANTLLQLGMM
# Biological target: T1, PP5 (human (endogenous in HEK293))
# Experiment: co-IP; synthetic peptides added at 1 or 10 µM to HEK293 cells for 24 h; IP of Cdc37 from the lysate and immunoblot; binding of the peptide is read from the loss of the partner from the Cdc37 precipitate; only the binder purified
row,Binder,binding
1,NYSVWDHIEVEDDLSKDGFSKSMVN (C-terminal amide) [Cdc37p3],binds
2,LSKDGFSKSMVN (C-terminal amide) [Cdc37p4],binds

# The remaining lines, values ahead:
row,binding,Binder
1,binds,PSKDIFLKSMIN (C-terminal amide) [Cdc37p5]
2,binds,NYSVWDHIEVDDDLSKDGFSKSMVN (C-terminal amide) [Cdc37p2]
3,binds,NYSVWDHIEVSDDLSKDGFSKSMVN (C-terminal amide) [Cdc37p1]
